In the supplement of paper PMC10849652:
Some of the results follow.

Chains of the proteins cited; added tags and fusions are not shown. Lines headed by an entry give the natural chain unless they say otherwise; changes in a name come on top.
UniProt Q8N766: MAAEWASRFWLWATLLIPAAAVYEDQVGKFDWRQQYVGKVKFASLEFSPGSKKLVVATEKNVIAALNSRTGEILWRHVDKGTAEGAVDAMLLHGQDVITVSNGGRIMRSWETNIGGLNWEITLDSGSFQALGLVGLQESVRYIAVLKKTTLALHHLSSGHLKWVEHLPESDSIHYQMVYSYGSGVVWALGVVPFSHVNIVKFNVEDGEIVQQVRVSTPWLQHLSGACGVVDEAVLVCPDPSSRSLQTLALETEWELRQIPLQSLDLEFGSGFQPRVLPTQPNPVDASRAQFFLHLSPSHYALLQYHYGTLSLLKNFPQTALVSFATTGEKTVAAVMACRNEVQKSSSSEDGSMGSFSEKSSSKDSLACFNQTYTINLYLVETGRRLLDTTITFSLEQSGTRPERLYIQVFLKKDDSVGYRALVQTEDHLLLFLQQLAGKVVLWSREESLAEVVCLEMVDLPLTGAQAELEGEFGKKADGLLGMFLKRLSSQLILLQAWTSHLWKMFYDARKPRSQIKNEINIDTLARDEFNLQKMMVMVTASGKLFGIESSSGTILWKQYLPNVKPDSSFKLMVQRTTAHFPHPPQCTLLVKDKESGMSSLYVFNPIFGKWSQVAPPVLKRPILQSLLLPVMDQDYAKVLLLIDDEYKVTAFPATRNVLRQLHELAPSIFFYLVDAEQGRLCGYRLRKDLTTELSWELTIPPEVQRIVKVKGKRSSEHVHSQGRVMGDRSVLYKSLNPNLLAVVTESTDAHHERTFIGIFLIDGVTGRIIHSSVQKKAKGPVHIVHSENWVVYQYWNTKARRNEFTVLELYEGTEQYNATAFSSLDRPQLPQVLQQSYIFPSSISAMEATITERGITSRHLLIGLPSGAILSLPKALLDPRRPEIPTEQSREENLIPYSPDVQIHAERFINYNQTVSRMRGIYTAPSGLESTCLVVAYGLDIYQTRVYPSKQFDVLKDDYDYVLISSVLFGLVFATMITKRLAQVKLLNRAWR
UniProt Q92979: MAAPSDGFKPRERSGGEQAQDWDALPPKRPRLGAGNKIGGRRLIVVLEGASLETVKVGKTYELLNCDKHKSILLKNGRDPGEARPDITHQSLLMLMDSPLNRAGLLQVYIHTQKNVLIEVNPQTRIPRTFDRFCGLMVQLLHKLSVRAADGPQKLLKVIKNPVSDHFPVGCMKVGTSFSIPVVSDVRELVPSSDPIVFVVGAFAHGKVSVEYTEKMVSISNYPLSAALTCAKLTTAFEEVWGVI
UniProt P06733, whole entry, looked up: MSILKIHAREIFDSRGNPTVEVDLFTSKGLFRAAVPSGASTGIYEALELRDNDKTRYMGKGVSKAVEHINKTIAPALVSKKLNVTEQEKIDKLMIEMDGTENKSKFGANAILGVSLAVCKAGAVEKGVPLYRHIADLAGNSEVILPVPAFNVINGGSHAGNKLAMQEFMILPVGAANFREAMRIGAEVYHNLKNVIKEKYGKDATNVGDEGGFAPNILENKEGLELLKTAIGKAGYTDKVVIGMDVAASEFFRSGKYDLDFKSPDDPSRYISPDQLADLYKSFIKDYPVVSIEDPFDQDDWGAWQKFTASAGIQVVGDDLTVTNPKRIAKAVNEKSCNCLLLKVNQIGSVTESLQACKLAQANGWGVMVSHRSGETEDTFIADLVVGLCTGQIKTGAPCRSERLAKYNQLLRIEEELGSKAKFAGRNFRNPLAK
UniProt Q9BV81: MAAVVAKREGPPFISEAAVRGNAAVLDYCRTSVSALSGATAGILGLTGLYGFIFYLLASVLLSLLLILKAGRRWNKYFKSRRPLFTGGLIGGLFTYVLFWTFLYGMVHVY
UniProt Q15029: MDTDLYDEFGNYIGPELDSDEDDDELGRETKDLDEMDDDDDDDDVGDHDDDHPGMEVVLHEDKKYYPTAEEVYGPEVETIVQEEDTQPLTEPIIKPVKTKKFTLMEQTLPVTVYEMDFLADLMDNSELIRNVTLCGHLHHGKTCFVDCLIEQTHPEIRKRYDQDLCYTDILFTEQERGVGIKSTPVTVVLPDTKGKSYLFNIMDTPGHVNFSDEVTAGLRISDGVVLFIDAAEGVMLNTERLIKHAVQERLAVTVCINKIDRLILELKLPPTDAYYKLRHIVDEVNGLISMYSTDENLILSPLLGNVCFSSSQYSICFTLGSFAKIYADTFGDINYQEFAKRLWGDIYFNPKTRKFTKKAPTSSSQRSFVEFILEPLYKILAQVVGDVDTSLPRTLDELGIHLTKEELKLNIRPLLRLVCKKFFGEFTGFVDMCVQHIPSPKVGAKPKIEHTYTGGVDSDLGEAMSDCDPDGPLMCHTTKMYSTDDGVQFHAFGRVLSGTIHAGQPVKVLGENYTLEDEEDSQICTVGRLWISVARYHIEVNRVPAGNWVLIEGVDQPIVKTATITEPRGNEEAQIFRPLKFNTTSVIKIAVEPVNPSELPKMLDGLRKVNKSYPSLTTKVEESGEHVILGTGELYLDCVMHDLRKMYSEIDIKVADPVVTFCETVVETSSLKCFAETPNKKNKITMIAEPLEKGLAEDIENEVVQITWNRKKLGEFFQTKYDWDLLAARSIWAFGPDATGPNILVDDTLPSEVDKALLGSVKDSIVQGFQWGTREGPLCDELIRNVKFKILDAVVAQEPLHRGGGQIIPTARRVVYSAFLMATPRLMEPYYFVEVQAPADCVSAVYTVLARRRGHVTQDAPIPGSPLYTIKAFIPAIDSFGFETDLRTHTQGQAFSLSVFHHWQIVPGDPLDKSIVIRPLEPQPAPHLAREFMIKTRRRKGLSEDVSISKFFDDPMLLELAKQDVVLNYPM
UniProt Q9UBQ5, whole entry, looked up: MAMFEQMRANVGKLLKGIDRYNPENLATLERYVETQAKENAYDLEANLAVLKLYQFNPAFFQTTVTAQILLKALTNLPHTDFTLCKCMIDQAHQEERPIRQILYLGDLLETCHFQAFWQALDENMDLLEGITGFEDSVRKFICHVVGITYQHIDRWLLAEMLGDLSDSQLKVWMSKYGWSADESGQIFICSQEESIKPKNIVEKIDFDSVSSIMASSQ
UniProt Q96C19: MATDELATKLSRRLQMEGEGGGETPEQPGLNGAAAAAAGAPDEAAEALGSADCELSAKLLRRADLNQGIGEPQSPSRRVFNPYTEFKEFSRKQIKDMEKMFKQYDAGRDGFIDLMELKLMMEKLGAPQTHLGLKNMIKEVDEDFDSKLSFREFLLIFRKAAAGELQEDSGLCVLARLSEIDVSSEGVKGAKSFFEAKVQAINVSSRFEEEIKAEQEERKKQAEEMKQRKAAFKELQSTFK
UniProt Q09472, whole entry, looked up: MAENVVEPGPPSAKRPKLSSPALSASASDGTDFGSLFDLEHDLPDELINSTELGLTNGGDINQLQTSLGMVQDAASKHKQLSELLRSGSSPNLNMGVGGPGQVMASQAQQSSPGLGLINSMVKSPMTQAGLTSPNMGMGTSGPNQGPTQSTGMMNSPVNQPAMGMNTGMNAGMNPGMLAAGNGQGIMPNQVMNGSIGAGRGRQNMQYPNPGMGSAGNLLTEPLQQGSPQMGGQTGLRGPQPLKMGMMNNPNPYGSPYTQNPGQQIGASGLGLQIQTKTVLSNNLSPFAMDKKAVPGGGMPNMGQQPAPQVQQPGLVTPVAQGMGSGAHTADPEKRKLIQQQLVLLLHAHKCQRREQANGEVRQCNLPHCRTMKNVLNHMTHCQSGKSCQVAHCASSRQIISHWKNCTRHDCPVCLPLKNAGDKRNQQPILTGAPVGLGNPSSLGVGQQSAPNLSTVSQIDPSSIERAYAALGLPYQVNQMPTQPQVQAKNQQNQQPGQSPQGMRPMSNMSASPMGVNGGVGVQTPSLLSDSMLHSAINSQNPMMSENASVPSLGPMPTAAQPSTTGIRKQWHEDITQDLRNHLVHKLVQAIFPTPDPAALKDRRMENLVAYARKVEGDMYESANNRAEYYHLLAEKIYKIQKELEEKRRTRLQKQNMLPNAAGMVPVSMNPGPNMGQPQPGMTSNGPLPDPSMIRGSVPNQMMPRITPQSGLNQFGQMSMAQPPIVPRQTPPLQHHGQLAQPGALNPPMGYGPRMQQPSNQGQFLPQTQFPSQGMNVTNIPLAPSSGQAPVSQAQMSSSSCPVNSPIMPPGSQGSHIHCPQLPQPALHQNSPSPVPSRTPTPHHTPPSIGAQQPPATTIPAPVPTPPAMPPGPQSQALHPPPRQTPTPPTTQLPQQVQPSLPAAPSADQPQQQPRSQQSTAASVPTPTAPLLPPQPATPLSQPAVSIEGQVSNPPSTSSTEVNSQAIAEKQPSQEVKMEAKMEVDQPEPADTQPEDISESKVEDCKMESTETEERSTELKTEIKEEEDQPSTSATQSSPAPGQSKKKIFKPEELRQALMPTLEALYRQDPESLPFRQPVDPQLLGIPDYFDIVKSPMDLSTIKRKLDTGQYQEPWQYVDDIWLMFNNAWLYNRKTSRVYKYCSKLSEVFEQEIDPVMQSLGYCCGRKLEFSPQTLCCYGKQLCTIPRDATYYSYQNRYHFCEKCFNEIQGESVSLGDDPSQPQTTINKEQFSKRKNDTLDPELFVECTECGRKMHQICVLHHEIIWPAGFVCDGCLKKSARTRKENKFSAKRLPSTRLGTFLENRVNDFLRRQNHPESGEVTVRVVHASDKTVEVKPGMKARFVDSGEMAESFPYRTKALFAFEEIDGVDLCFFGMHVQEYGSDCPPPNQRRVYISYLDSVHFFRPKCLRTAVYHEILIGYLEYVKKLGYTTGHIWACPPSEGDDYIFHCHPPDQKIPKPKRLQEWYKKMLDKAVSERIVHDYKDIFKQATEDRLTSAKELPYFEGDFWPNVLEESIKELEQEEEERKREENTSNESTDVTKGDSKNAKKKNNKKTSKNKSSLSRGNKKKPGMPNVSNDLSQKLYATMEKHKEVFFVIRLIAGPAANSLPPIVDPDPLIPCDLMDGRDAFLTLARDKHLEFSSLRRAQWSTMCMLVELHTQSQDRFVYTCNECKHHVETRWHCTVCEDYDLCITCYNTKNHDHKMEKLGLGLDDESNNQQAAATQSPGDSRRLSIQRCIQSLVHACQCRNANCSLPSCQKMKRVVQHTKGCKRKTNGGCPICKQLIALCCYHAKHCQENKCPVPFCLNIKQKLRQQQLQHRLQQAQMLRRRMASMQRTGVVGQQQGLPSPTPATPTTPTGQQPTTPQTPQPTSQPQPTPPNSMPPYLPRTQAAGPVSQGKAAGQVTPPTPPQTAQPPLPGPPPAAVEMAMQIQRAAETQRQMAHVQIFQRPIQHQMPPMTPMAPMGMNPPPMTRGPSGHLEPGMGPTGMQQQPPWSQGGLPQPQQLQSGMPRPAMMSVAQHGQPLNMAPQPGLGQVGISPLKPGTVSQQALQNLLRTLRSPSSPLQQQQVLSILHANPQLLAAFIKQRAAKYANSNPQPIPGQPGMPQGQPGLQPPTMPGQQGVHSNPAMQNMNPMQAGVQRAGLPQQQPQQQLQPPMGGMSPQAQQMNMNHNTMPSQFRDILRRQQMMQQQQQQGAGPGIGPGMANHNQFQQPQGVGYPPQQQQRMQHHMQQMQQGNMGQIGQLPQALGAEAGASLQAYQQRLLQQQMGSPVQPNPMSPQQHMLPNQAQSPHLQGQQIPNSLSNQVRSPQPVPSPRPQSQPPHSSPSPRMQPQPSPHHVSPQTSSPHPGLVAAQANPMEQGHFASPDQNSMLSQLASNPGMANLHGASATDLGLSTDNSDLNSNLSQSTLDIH
UniProt Q9NPA8: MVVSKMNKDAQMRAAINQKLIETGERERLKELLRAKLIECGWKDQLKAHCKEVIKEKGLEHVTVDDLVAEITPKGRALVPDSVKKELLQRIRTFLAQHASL
UniProt Q08426: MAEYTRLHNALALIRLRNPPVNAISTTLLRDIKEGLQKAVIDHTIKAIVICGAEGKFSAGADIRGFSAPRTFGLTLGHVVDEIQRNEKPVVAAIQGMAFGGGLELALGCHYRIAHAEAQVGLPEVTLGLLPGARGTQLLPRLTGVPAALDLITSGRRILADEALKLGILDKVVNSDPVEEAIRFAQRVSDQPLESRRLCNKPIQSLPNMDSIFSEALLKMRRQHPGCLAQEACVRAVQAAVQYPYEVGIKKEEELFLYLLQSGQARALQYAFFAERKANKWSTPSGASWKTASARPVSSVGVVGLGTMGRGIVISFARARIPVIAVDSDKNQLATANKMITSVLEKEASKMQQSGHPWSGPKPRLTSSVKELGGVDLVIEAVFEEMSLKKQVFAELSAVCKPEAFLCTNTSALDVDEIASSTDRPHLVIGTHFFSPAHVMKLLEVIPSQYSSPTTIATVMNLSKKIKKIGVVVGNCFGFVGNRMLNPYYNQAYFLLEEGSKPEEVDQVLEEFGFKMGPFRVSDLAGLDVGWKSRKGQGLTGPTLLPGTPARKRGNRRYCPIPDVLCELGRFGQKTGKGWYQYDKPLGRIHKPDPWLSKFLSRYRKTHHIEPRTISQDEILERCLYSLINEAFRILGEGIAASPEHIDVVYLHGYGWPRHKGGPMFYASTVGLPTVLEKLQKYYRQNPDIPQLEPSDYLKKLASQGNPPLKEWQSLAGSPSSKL
UniProt P47813, whole entry, looked up: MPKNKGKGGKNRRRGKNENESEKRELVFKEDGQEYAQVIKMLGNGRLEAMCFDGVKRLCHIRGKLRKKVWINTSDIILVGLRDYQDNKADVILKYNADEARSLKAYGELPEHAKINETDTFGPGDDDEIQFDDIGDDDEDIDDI

Experiments:
Test in all cases: log2 fold change, soluble protein after heating vs DMSO (PISA); higher = thermal stabilisation; K562 cells, 10 uM, 30 min; active = over 0.2 and 3.5 SD of the protein, either way, in both replicates (recomputed)
[1] = compound: CS(=O)(=O)c1ccc(-c2cnc(N)c(C(=O)Nc3ccccc3)n2)cc1
Method in brief: (§1)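 Thermal stability values are relative to control samples and come from duplicates. They are expressed as log2 fold changes. For measurement, K562 cells (2×10^6 cells/mL) received 10 μM compound for 30 min, and aliquots were heated for 3 min over 48°C-58°C, pooled, and extracted at 4°C in PBS with 0.5% NP-40. Soluble protein, the supernatant after 21,000xg for 90 min, was quantified by TMTpro 16plex LC-MS/MS with equalised channel sums.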

crizotinib = compound: C[C@@H](Oc1cc(-c2cnn(C3CCNCC3)c2)cnc1N)c1c(Cl)ccc(F)c1Cl [crizotinib]
Method in brief: as §1

[2] = compound: C[C@@H]1COCCN1C2=NC(=NC(=C2)C3(CC3)S(=O)(=O)C)C4=C5C=CNC5=CC=C4
Method in brief: as §1

[3] = compound: C[C@H](C1=CC=C(C=C1)C(=O)NC2=C3C=CNC3=NC=C2)N
Method in brief: as §1

duvelisib = compound: C[C@H](Nc1ncnc2nc[nH]c12)c1cc2cccc(Cl)c2c(=O)n1-c1ccccc1 [duvelisib]
Method in brief: as §1

gandotinib = compound: Cc1cc(Nc2cc(CN3CCOCC3)c3nc(C)c(Cc4ccc(Cl)cc4F)n3n2)n[nH]1 [gandotinib]
Method in brief: as §1

tozasertib = compound: Cc1cc(Nc2cc(N3CCN(C)CC3)nc(Sc3ccc(NC(=O)C4CC4)cc3)n2)n[nH]1 [tozasertib]
Method in brief: as §1

[4] = compound: Cc1cc(SCc2sc(-c3ccc(C(F)(F)F)cc3)nc2C)ccc1OCC(=O)O
Method in brief: as §1

doramapimod = compound: Cc1ccc(-n2nc(C(C)(C)C)cc2NC(=O)Nc2ccc(OCCN3CCOCC3)c3ccccc23)cc1 [doramapimod]
Method in brief: as §1

ispinesib = compound: Cc1ccc(C(=O)N(CCCN)[C@@H](c2nc3cc(Cl)ccc3c(=O)n2Cc2ccccc2)C(C)C)cc1 [ispinesib]
Method in brief: as §1

Measured: log2 fold change

EIF1 (UniProt P41567)
inactive: [1] 0.018 | crizotinib 0.042 | [2] -0.075 | [3] -0.063 | duvelisib 0.029 | gandotinib 0.07 | tozasertib -0.013 | [4] -0.025 | doramapimod -0.027 | ispinesib 0.001

EIF3A (UniProt Q14152)
inactive: [1] -0.018 | crizotinib -0.166 | [2] -0.006 | [3] 0.11 | duvelisib -0.03 | gandotinib 0.012 | tozasertib 0.069 | [4] 0.108 | doramapimod 0.021 | ispinesib -0.112

EMC1 (UniProt Q8N766)
inactive: [1] -0.018 | crizotinib 0.001 | [2] 0.006 | [3] -0.052 | duvelisib 0.008 | gandotinib 0.014 | tozasertib 0.014 | [4] 0.024 | doramapimod 0 | ispinesib -0.003

EIF3D (UniProt O15371)
inactive: [1] -0.021 | crizotinib -0.165 | [2] -0.07 | [3] 0.316 | duvelisib -0.091 | gandotinib 0.012 | tozasertib 0.06 | [4] 0.155 | doramapimod 0.116 | ispinesib -0.17

ELP3 (UniProt Q9H9T3)
inactive: [1] 0.057 | crizotinib 0.043 | [2] -0.012 | [3] -0.042 | duvelisib 0.015 | gandotinib 0.005 | tozasertib 0.013 | [4] 0.001 | doramapimod -0.007 | ispinesib 0.055

EMG1 (UniProt Q92979)
inactive: [1] -0.048 | crizotinib 0.074 | [2] -0.144 | [3] 0.078 | duvelisib 0.001 | gandotinib 0.037 | tozasertib -0.009 | [4] -0.021 | doramapimod 0.012 | ispinesib 0.033

EML3 (UniProt Q32P44)
inactive: [1] 0.066 | crizotinib -0.221 | [2] -0.076 | [3] 0.19 | duvelisib -0.219 | gandotinib 0.206 | tozasertib -0.119 | [4] -0.092 | doramapimod 0.203 | ispinesib -0.065

EIF5B (UniProt O60841)
inactive: [1] -0.017 | crizotinib 0.023 | [2] -0.102 | [3] 0.02 | duvelisib -0.023 | gandotinib -0.003 | tozasertib 0.038 | [4] 0.035 | doramapimod 0.073 | ispinesib -0.012

ENO1 isoform 2 (UniProt P06733)
inactive: [1] 0.122 | crizotinib 0.012 | [2] -0.005 | [3] -0.035 | duvelisib 0.142 | gandotinib 0.372 | tozasertib -0.194 | [4] -0.083 | doramapimod 0.043 | ispinesib 0.006

ELP6 (UniProt Q0PNE2)
inactive: [1] -0.03 | crizotinib 0.061 | [2] 0.026 | [3] -0.026 | duvelisib 0.015 | gandotinib -0.059 | tozasertib 0.007 | [4] -0.007 | doramapimod -0.026 | ispinesib 0.012

EMC6 (UniProt Q9BV81)
inactive: [1] -0.005 | crizotinib 0.051 | [2] -0.008 | [3] -0.09 | duvelisib 0.033 | gandotinib -0.207 | tozasertib 0.116 | [4] 0.033 | doramapimod -0.19 | ispinesib 0.059

ELP4 (UniProt Q96EB1)
inactive: [1] 0.029 | crizotinib 0.05 | [2] 0.02 | [3] -0.031 | duvelisib 0.026 | gandotinib 0.056 | tozasertib -0.024 | [4] -0.096 | doramapimod 0.174 | ispinesib -0.046

2 entries picked at random from those above:
ENO1 isoform 2 (UniProt P06733)
inactive: [1] 0.122 | crizotinib 0.012 | [2] -0.005 | [3] -0.035 | duvelisib 0.142 | gandotinib 0.372 | tozasertib -0.194 | [4] -0.083 | doramapimod 0.043 | ispinesib 0.006

EMC6 (UniProt Q9BV81)
inactive: [1] -0.005 | crizotinib 0.051 | [2] -0.008 | [3] -0.09 | duvelisib 0.033 | gandotinib -0.207 | tozasertib 0.116 | [4] 0.033 | doramapimod -0.19 | ispinesib 0.059

Next part.

EIF5 (UniProt P55010)
inactive: [1] 0.023 | crizotinib 0.045 | [2] 0.055 | [3] -0.08 | duvelisib 0.038 | gandotinib -0.018 | tozasertib 0.008 | [4] 0.034 | doramapimod -0.041 | ispinesib 0.031

EFTUD2 (UniProt Q15029)
inactive: [1] -0.057 | crizotinib 0.099 | [2] 0.009 | [3] -0.044 | duvelisib -0.011 | gandotinib -0.028 | tozasertib -0.015 | [4] -0.054 | doramapimod 0 | ispinesib 0.037

ENOSF1 (UniProt Q7L5Y1)
inactive: [1] 0.037 | crizotinib 0.017 | [2] 0.064 | [3] -0.014 | duvelisib 0.073 | gandotinib -0.023 | tozasertib 0.002 | [4] 0.024 | doramapimod 0.003 | ispinesib 0.042

EIF4EBP2 (UniProt Q13542)
inactive: [1] -0.133 | crizotinib 0.051 | [2] 0.253 | [3] 0.006 | duvelisib 0.181 | gandotinib 0.069 | tozasertib 0.091 | [4] 0.005 | doramapimod 0.109 | ispinesib 0.231

EFNB1 (UniProt P98172)
inactive: [1] -0.152 | crizotinib -0.034 | [2] 0.165 | [3] -0.146 | duvelisib -0.003 | gandotinib -0.178 | tozasertib -0.058 | [4] -0.042 | doramapimod 0.186 | ispinesib 0.064

ELAVL1 isoform 2 (UniProt Q15717)
inactive: [1] -0.065 | crizotinib -0.052 | [2] -0.253 | [3] 0.373 | duvelisib -0.07 | gandotinib 0.082 | tozasertib 0.082 | [4] 0.061 | doramapimod 0.016 | ispinesib -0.067

EIF3K (UniProt Q9UBQ5)
inactive: [1] -0.02 | crizotinib -0.036 | [2] 0.058 | [3] -0.017 | duvelisib 0.034 | gandotinib 0.002 | tozasertib 0.007 | [4] 0.042 | doramapimod 0.06 | ispinesib 0.06

EIF2B3 (UniProt Q9NR50)
inactive: [1] 0.032 | crizotinib -0.036 | [2] -0.073 | [3] 0.012 | duvelisib -0.037 | gandotinib -0.005 | tozasertib 0.04 | [4] 0.066 | doramapimod 0.018 | ispinesib -0.013

EFHD2 (UniProt Q96C19)
inactive: [1] 0.01 | crizotinib 0.046 | [2] 0.083 | [3] 0.021 | duvelisib -0.011 | gandotinib -0.019 | tozasertib 0.084 | [4] 0.063 | doramapimod 0.002 | ispinesib 0.03

EPB41 (UniProt P11171)
inactive: [1] 0.035 | crizotinib -0.01 | [2] 0.036 | [3] -0.063 | duvelisib -0.028 | gandotinib -0.028 | tozasertib -0.025 | [4] 0.008 | doramapimod -0.019 | ispinesib -0.014

EP300 (UniProt Q09472)
inactive: [1] -0.074 | crizotinib -0.007 | [2] 0.08 | [3] -0.069 | duvelisib 0.049 | gandotinib 0.005 | tozasertib -0.018 | [4] 0.016 | doramapimod -0.024 | ispinesib 0.141

EIF2AK2 (UniProt P19525)
inactive: [1] 0.035 | crizotinib 0.023 | [2] -0.378 | [3] 0.543 | duvelisib -0.021 | gandotinib 0.174 | tozasertib 0.058 | [4] -0.031 | doramapimod 0.345 | ispinesib -0.344

EIF2B2 (UniProt P49770)
inactive: [1] 0.004 | crizotinib 0.024 | [2] -0.044 | [3] 0.012 | duvelisib -0.001 | gandotinib -0.018 | tozasertib 0.053 | [4] 0.008 | doramapimod 0.004 | ispinesib 0.014

EIF2S2 (UniProt P20042)
inactive: [1] -0.067 | crizotinib 0.003 | [2] -0.214 | [3] 0.087 | duvelisib -0.03 | gandotinib -0.003 | tozasertib -0.024 | [4] -0.024 | doramapimod 0.036 | ispinesib -0.096

ENY2 (UniProt Q9NPA8)
inactive: [1] -0.039 | crizotinib 0.166 | [2] 0.159 | [3] -0.087 | duvelisib 0.075 | gandotinib -0.108 | tozasertib 0.048 | [4] 0.01 | doramapimod -0.003 | ispinesib 0.082

EIF2B4 isoform 2 (UniProt Q9UI10)
inactive: [1] 0.031 | crizotinib -0.036 | [2] -0.06 | [3] 0.091 | duvelisib -0.017 | gandotinib 0.006 | tozasertib -0.024 | [4] 0.034 | doramapimod 0.062 | ispinesib -0.013

EHHADH (UniProt Q08426)
inactive: [1] 0 | crizotinib 0.046 | [2] 0.077 | [3] 0.016 | duvelisib 0.086 | gandotinib -0.034 | tozasertib -0.037 | [4] 0.071 | doramapimod -0.019 | ispinesib 0.043

EIF1AX (UniProt P47813)
inactive: [1] -0.012 | crizotinib -0.011 | [2] -0.048 | [3] -0.06 | duvelisib -0.014 | gandotinib -0.021 | tozasertib 0.002 | [4] 0.041 | doramapimod 0.012 | ispinesib 0.094
